The values below come from PMC5582827.

Protein sequences, listed by entry. Tags and fused reporters are not part of them.
UniProt Q9UM11: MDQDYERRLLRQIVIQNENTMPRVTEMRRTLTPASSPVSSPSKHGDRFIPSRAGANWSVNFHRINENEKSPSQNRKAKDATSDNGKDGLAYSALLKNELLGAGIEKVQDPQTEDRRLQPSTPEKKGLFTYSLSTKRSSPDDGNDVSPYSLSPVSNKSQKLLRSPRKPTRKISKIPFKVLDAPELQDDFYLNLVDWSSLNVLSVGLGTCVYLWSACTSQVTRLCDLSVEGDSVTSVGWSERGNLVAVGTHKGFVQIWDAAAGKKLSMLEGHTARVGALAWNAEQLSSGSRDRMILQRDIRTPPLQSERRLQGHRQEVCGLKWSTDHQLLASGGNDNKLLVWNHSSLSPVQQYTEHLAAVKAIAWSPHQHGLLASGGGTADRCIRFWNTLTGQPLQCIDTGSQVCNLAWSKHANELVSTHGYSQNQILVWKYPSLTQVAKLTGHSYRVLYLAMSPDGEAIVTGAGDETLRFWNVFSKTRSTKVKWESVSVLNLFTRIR

No constants are given. Whether binding was seen depends on the method and setting. Binding seen in cells or lysates may run through a third protein. Some results given as binding are weak or reduced against the parent protein; the word gives no strength. Sequences can lack the tags named with a protein.

Assay [1] concerns the target Myc-CDH1 (UniProt Q9UM11). Briefly: co-IP; HeLa cells transfected with FLAG-RNF157 (or mutant) and Myc-CDH1 or Myc-CDK2; lysate in Cell Extraction Buffer, immunoprecipitation with Myc antibody, blot with FLAG antibody; unsynchronized, nocodazole (G2/M) or double thymidine (G1/S) arrested cells, and cells treated with PI3K/MEK inhibitors or CDK2 inhibitor (2.1 and 4.2 μM, 8 h).

Assay [2] addresses Myc-CDH1 (UniProt Q9UM11). Put plainly: co-IP; interaction of RNF157 D-box mutants with CDH1, supplemental Fig. S4D; cells and set-up not shown.

B1: FLAG-tagged phosphodeficient RNF157 mutant (Δ4S), Ser660-663 deleted (protein, UniProt Q96PX1)
chain: MGALTSRQHAGVEEVDIPSNSVYRYPPKSGSYFASHFIMGGEKFDSTHPEGYLFGENSDLNFLGNRPVVFPYAAPPPQEPVKTLRSLVNIRKDTLRLVKCAEEVKSPGEEASKAKVHYNVEFTFDTDARVAITIYYQATEEFQNGIASYIPKDNSLQSETVQYKRGVCQQFCLPSHTVDPSEWAEEELGFDLDREVYPLVVHAVVDEGDEYFGHCHVLLGTFEKHTDGTFCVKPLKQKQVVDGVSYLLQEIYGIENKYNTQDSKVAEDEVSDNSAECVVCLSDVRDTLILPCRHLCLCNTCADTLRYQANNCPICRLPFRALLQIRAMRKKLGPLSPTSFNPIISSQTSDSEEHPSSENIPPGYEVVSLLEALNGPLTPSPAVPPLHVLGDGHLSGMLPSYGSDGHLPPVRTISPLDRLSDSSSQGLKLKKSLSKSTSQNSSVLHEEEDEHSCSESETQLSQRPSVQHLGEECGVTPESENLTLSSSGAIDQSSCTGTPLSSTISSPEGPASSSLAQSVMSMASSQISTDTVSSMSGSYIAPGTEEEGEALSSPQPASRAPSEEGEGLPAESPDSNFAGLPAGEQDAEGNDVIEEEDGSPTQEGQRTCAFLGMECDNNNDFDIASVKALDNKLCSEVCLPGAWQADDNAVSRNAQRRRLLEDSETRPCVWGPLAV
Turning to B1, in the assay with Myc-CDH1 [1], the binding entry is “no binding”.

B2: FLAG-RNF157 full length (RING finger protein 157), wild type (protein, UniProt Q96PX1 1-679)
chain: MGALTSRQHAGVEEVDIPSNSVYRYPPKSGSYFASHFIMGGEKFDSTHPEGYLFGENSDLNFLGNRPVVFPYAAPPPQEPVKTLRSLVNIRKDTLRLVKCAEEVKSPGEEASKAKVHYNVEFTFDTDARVAITIYYQATEEFQNGIASYIPKDNSLQSETVQYKRGVCQQFCLPSHTVDPSEWAEEELGFDLDREVYPLVVHAVVDEGDEYFGHCHVLLGTFEKHTDGTFCVKPLKQKQVVDGVSYLLQEIYGIENKYNTQDSKVAEDEVSDNSAECVVCLSDVRDTLILPCRHLCLCNTCADTLRYQANNCPICRLPFRALLQIRAMRKKLGPLSPTSFNPIISSQTSDSEEHPSSENIPPGYEVVSLLEALNGPLTPSPAVPPLHVLGDGHLSGMLPSYGSDGHLPPVRTISPLDRLSDSSSQGLKLKKSLSKSTSQNSSVLHEEEDEHSCSESETQLSQRPSVQHLGEECGVTPESENLTLSSSGAIDQSSCTGTPLSSTISSPEGPASSSLAQSVMSMASSQISTDTVSSMSGSYIAPGTEEEGEALSSPQPASRAPSEEGEGLPAESPDSNFAGLPAGEQDAEGNDVIEEEDGSPTQEGQRTCAFLGMECDNNNDFDIASVKALDNKLCSEVCLPGAWQADDNAVSRNAQRRRLSSSSLEDSETRPCVWGPLAV
For B2, the binding result in the assay with Myc-CDH1 [1] and with Myc-CDH1 [2] was “binds” throughout.

B3: FLAG-RNF157(4SA), serine 660-663-to-alanine mutant (protein, UniProt Q96PX1 1-679)
chain: MGALTSRQHAGVEEVDIPSNSVYRYPPKSGSYFASHFIMGGEKFDSTHPEGYLFGENSDLNFLGNRPVVFPYAAPPPQEPVKTLRSLVNIRKDTLRLVKCAEEVKSPGEEASKAKVHYNVEFTFDTDARVAITIYYQATEEFQNGIASYIPKDNSLQSETVQYKRGVCQQFCLPSHTVDPSEWAEEELGFDLDREVYPLVVHAVVDEGDEYFGHCHVLLGTFEKHTDGTFCVKPLKQKQVVDGVSYLLQEIYGIENKYNTQDSKVAEDEVSDNSAECVVCLSDVRDTLILPCRHLCLCNTCADTLRYQANNCPICRLPFRALLQIRAMRKKLGPLSPTSFNPIISSQTSDSEEHPSSENIPPGYEVVSLLEALNGPLTPSPAVPPLHVLGDGHLSGMLPSYGSDGHLPPVRTISPLDRLSDSSSQGLKLKKSLSKSTSQNSSVLHEEEDEHSCSESETQLSQRPSVQHLGEECGVTPESENLTLSSSGAIDQSSCTGTPLSSTISSPEGPASSSLAQSVMSMASSQISTDTVSSMSGSYIAPGTEEEGEALSSPQPASRAPSEEGEGLPAESPDSNFAGLPAGEQDAEGNDVIEEEDGSPTQEGQRTCAFLGMECDNNNDFDIASVKALDNKLCSEVCLPGAWQADDNAVSRNAQRRRLAAAALEDSETRPCVWGPLAV
B3: in the assay with Myc-CDH1 [1], the binding result was “binds”.
